From PubChem BioAssay AID540276 (National Center for Advancing Translational Sciences (NCATS), 2011)
In all, about 300,000 compounds went through this assay and about 5,400 (1.8%) were called active. The inconclusive results got no clear call from the source; some entries with a clear call stand among them for comparison. The call rests on the fitted dose curve; tested in HEK293 cells. A potency beside an inconclusive call is a rough fit, not a confirmed value.
On the % scale 0 is the no-effect control and ±100 the full control effect; potency means the concentration at half of the fitted maximal effect.

Assay: qHTS for inhibitors of binding or entry into cells for Marburg Virus
Conditions: Marburg virus pseudotyped entry inhibition, cell reporter; activity change, negative = inhibition: at 37.8 µM (top of the series) unless noted
For `O=C(NNC(=O)c1ccccc1F)c1ccc(-c2ccc(Cl)cc2)o1`, the Potency was inconclusive: 20 µM [inhibitor, single point]. With `N#Cc1nc(-c2ccccc2F)oc1N1CCCC1` the “activity change, negative = inhibition” value was inactive: -4%. With `COCCNC(=O)c1ccc2c(c1)ncn2-c1ccc(F)c(F)c1` the Potency was inconclusive: 4.47 µM [activator, partial curve, poor fit]. For `Cc1cc(N[C@@H](CC(C)C)C(=O)O)nc(Cc2ccccc2)n1`, the “activity change, negative = inhibition” value was inactive: 22.2%. With `COCCn1nnnc1C(c1cc2cc(C)cc(C)c2[nH]c1=O)N1CCN(c2ccccc2F)CC1` (centres undefined) the Potency was inconclusive: 29.1 µM [inhibitor, single point]. For `COCCOC(=O)C1=C(C)NC(=O)NC1c1cn(-c2ccccc2)nc1-c1cccs1` (centres undefined), the “activity change, negative = inhibition” value was inactive: -17.6%. With `COc1ccc(-c2cc(C(=O)NCc3ccccc3)no2)cc1OC` the “activity change, negative = inhibition” value was inactive: 0.564%. With `COc1ccc(C(=O)NCCN(C)C)c2nc3ccccc3cc12` the Potency was active: 1.26 µM. With `CC(C)(C)OC(=O)N/N=C\C=C\c1ccc2c(c1)OCO2` the Potency was inconclusive: 3.26 µM [activator, single point]. With `CCOc1ccc2oc(=O)cc(CN3CCN(C(=O)c4ccc(OC)c(OC)c4)CC3)c2c1` the activity change, negative = inhibition was inconclusive: 7.71% [activator] [at 46.1 µM]. With `CC1CCN(C(=O)c2cc(-c3ccco3)on2)CC1` the Potency was inconclusive: 35.5 µM [inhibitor, single point]. For `O=C(O)CCCNC(=O)c1ccccn1`, the Potency was inconclusive: 0.316 µM [inhibitor, partial curve, poor fit]. With `COC(=O)c1ccc(CN2C(=O)[C@@]3(CC(C)=CC[C@@H](C)O3)c3ccccc32)cc1` the “activity change, negative = inhibition” value was inactive: -29.1% [at 14.2 µM]. In the case of `CCc1nc2ccccc2c(C(=O)OCC(=O)N2CC(C)OC(C)C2)c1C` (centres undefined), the “activity change, negative = inhibition” value is reported as inactive: -2.17%. In the case of `CCOc1ccccc1N1CCN(C(=O)c2ccc(Cl)c(S(=O)(=O)N3CCCCC3)c2)CC1`, the Potency is reported as inconclusive: 22.4 µM [inhibitor, partial curve, poor fit]. With `O=[N+]([O-])c1ccc2c(c1)S(=O)(=O)C=C2` the Potency was inconclusive: 5.17 µM [inhibitor, full curve]. In the case of `Brc1ccc2[nH]c3c(c2c1)CCC3`, the Potency is reported as inconclusive: 35.5 µM [inhibitor, single point]. In the case of `O=C(Nc1ccncc1)c1ccc(C(=O)Nc2ccncc2)cc1`, the Potency is reported as inconclusive: 2.91 µM [inhibitor, partial curve, poor fit]. In the case of `CCc1ccc(OC(=O)c2ccn(CC)n2)cc1`, the “activity change, negative = inhibition” value is reported as inactive: 3.04%. For `CCCNc1c(NS(=O)(=O)c2ccc(Br)cc2)c(=O)oc2ccccc12`, the Potency was inconclusive: 3.16 µM [inhibitor, partial curve, poor fit]. With `Cc1nc([N+](=O)[O-])cn1-c1ccc(N)cc1` the “activity change, negative = inhibition” value was inactive: 0.764%. For `Cc1ccc(NC(=O)NCC2CCN(Cc3cc(C)ccc3Cl)CC2)c(C)c1`, the Potency was inconclusive: 1.58 µM [inhibitor, full curve, poor fit]. With `Cc1cccc(Nc2nc(N)nc(N)c2S(=O)(=O)c2ccccc2)c1` the Potency was inconclusive: 5.01 µM [inhibitor, full curve, poor fit]. With `O=C(c1ccccc1F)N1c2ncnn2C2(CCCCC2)[C@@H]2CCCC[C@@H]21` the Potency was inconclusive: 28.2 µM [inhibitor, single point]. In the case of `CC(=O)Nc1ccc(S(=O)(=O)N(Cc2ccco2)Cc2cc3ccccc3[nH]c2=O)cc1`, the Potency is reported as inconclusive: 35.5 µM [inhibitor, single point]. With `Cc1nc2cc(C(F)(F)F)ccc2n1C1CCN(Cc2nnnn2Cc2cccs2)CC1` the “activity change, negative = inhibition” value was inactive: -15.3%. With `Cc1cccc(NC(=O)CSc2ncc(-c3ccccc3)[nH]2)c1C` the Potency was inconclusive: 5.62 µM [activator, single point]. With `COc1cc(CCC(=O)N2CCN(c3ccccc3)CC2)cc(OC)c1OC` the “activity change, negative = inhibition” value was inactive: -2.75% [at 46.1 µM]. In the case of `O=C1C=C(Nc2ccccc2)c2ccccc2C1=O`, the Potency is reported as inconclusive: 20 µM [inhibitor, single point]. In the case of `O=C(Cc1c(F)cccc1Cl)NCc1cccnc1`, the Potency is reported as inconclusive: 0.355 µM [inhibitor, partial curve, poor fit]. With `CCCCOc1ccc(C(O)C(CN2CCCCC2)c2ccccc2)cc1` (centres undefined) the Potency was inconclusive: 11.2 µM [inhibitor, partial curve, poor fit]. For `COc1ccccc1CCC(=O)OC(C)C(=O)Nc1c(C)n(C)n(-c2ccccc2)c1=O` (centres undefined), the Potency was inconclusive: 0.708 µM [activator, full curve, poor fit]. For `COc1ccc(Nc2nc(N)nc(CN3CCN(c4ccc(F)cc4)CC3)n2)cc1`, the Potency was inconclusive: 22.4 µM [inhibitor, single point]. With `Cc1nc2ncnn2c(N2CCN(C(=O)Cc3cccs3)CC2)c1C` the Potency was inconclusive: 0.517 µM [inhibitor, single point]. With `CCSc1ncc(Cl)c(C(=O)Nc2nnc(CC)s2)n1` the Potency was inconclusive: 5.62 µM [activator, single point]. For `COc1c(F)c(F)cc2c(=O)c(C(=O)O)cn(C3CC3)c12`, the Potency was inconclusive: 20 µM [activator, single point]. In the case of `Cc1cccc(NC(=O)C(C)N2C(=O)C3C4CC(C(Br)C4Br)C3C2=O)c1` (centres undefined), the Potency is reported as inconclusive: 23.1 µM [inhibitor, partial curve, poor fit]. For `CCOc1cc(C=C(C(=O)OC)C(=O)OC)ccc1OCc1ccc([N+](=O)[O-])cc1`, the Potency was active: 2.82 µM. For `Cc1ccc(NS(=O)(=O)c2ccc(N/N=C/c3ccncc3)c([N+](=O)[O-])c2)c(C)c1`, the Potency was inconclusive: 35.5 µM [inhibitor, single point]. In the case of `Cn1c(COc2ccc([N+](=O)[O-])cc2)nnc1SCC(N)=O`, the Potency is reported as inconclusive: 17.8 µM [activator, single point]. In the case of `CCOc1ccc2[nH]c(=O)c(C(c3nnnn3Cc3ccco3)N3CCCC(C)C3)cc2c1` (centres undefined), the Potency is reported as “inactive”. In the case of `COc1ccc2c(c1)C=C(CN1CCN(Cc3ccccc3C)C(CCO)C1)CO2` (centres undefined), the Potency is reported as inconclusive: 25.1 µM [inhibitor, partial curve, poor fit]. In the case of `CCCCC1(C)Nc2ccccc2-c2nc3ccccc3n21` (centres undefined), the “activity change, negative = inhibition” value is reported as inactive: -13.4%. For `CN(C)CCC(O)(c1ccccc1)c1ccccc1Cl` (centres undefined), the “activity change, negative = inhibition” value was inactive: -20%.
